The subject of this data set is CHK2. Kind of data set: Gel-filtration profile (dimerization) of CHK2 proteins. Details: species or system human. To be noted: Superdex S200 10/300 GL, 20 mM Tris-HCl, 150 mM NaCl, 0.5 mM TCEP.

B1: pT68CHK2: ligation product, residues 63–538 with a phosphorylated Thr‐68 and a Ser‐73 to Cys mutation (protein)
chain: LETVSTQELYCIPEDQEPEDQEPEEPTPAPWARLWALQDGFANLECVNDNYWFGRDKSCEYCFDEPLLKRTDKYRTYSKKHFRIFREVGPKNSYIAYIEDHSGNGTFVNTELVGKGKRRPLNNNSEIALSLSRNKVFVFFDLTVDDQSVYPKALRDEYIMSKTLGSGACGEVKLAFERKTCKKVAIKIISKRKFAIGSAREADPALNVETEIEILKKLNHPCIIKIKNFFDAEDYYIVLELMEGGELFDKVVGNKRLKEATCKLYFYQMLLAVQYLHENGIIHRDLKPENVLLSSQEEDCLIKITDFGHSKILGETSLMRTLCGTPTYLAPEVLVSVGTAGYNRAVDCWSLGVILFICLSGYPPFSEHRTQVSLKDQITSGKYNFIPEVWAEVSEKALDLVKKLLVVDPKARFTTEEALRHPWLQDEDMKRKFQDLLSEENESTALPQVLAQPSTSRKRPREGEAEGAETTKRPAV
modifications: phosphorylated Thr-68 (pT in LETVSpTQELY)
notes: ligation product, residues 63–538 with a phosphorylated Thr‐68 and a Ser‐73 to Cys mutation
Turning to B1, the dimerization entry (pH 8.0, 0.5 mL min-1) was “dimerization” and the dimerization result (pH 8.0, 0.5 mL min-1, listed as Phosphorylated CHK2 protein) is on record as “dimerized”.

B2: CHK2(73‐538)S73C: expressed, unligated truncated CHK2 protein with N-terminal cysteine (protein)
chain: CIPEDQEPEDQEPEEPTPAPWARLWALQDGFANLECVNDNYWFGRDKSCEYCFDEPLLKRTDKYRTYSKKHFRIFREVGPKNSYIAYIEDHSGNGTFVNTELVGKGKRRPLNNNSEIALSLSRNKVFVFFDLTVDDQSVYPKALRDEYIMSKTLGSGACGEVKLAFERKTCKKVAIKIISKRKFAIGSAREADPALNVETEIEILKKLNHPCIIKIKNFFDAEDYYIVLELMEGGELFDKVVGNKRLKEATCKLYFYQMLLAVQYLHENGIIHRDLKPENVLLSSQEEDCLIKITDFGHSKILGETSLMRTLCGTPTYLAPEVLVSVGTAGYNRAVDCWSLGVILFICLSGYPPFSEHRTQVSLKDQITSGKYNFIPEVWAEVSEKALDLVKKLLVVDPKARFTTEEALRHPWLQDEDMKRKFQDLLSEENESTALPQVLAQPSTSRKRPREGEAEGAETTKRPAV
Take B2: under “pH 8.0, 0.5 mL min-1”, the dimerization result is given as “small amount of dimerization”.

These data come from article PMC5113665 (Angewandte Chemie (International Ed. in English), 2016).
